Measurements as given in PubChem BioAssay AID250 (DTP/NCI, 2004).
The list is a part of this screen's results and no random one: it gathers some chemical classes. Not every dose and run of a compound is shown. T/C gives the treated animals as a percentage of the vehicle group. For survival time, the PubChem record calls one and a half times the control and up active, and a quarter to a half above the control has no call in these data; cut-offs in other NCI protocols can differ. Schedule codes are those of the source, taken here to give the interval after Q, in days (D) or hours (H), and the number of doses after X. Some T/C values are marked as having no survivor count here; that says nothing about deaths at the dose. Signs of the kind (2×) stand for listed records that agree. Some doses were run more than once; the values are given in rising order.

Assays:
[1] = test system: BDF1 mice, L1210 leukemia sc; test: NCI In Vivo Anticancer Drug Screen. Data for tumor model L1210 Leukemia (subcutaneous) in B6D2F1 (BDF1) mice; conditions: T/C endpoint: median survival time, schedule: Q01DX009 (sc), vehicle: saline, higher T/C = longer survival
Protocol: (§1) The antitumor activity of compounds was measured in mice bearing transplantable tumors. Survival or tumor size were measured and the results are expressed as the measurement made in the treated group (T) divided by the measurement made in the vehicle treated control group (C). The tumor model used in this assay is L1210 Leukemia (subcutaneous) in B6D2F1 (BDF1) mice

[2] = test system: BDF1 mice, L1210 leukemia sc, survival T/C; test: as above; conditions: T/C endpoint: median survival time, schedule: Q01DX009 (sc), vehicle: saline, higher T/C = longer survival
Protocol: as §1

[3] = dose: 3.0 mg/kg/injection, evaluated on day 7
[4] = dose: 5.0 mg/kg/injection, evaluated on day 7

CC(=O)OCC12CCC(C)=CC1OC1C(O)C(OC(C)=O)C2(C)C12CO2 (stereo not drawn)
T/C ([1]; dose: 2.0 mg/kg/injection, evaluated on day 7): 125 % of control [survivor count not shown] | T/C ([1]; dose: 2.0 mg/kg/injection, evaluated on day 36): 127 % of control [survivor count not shown] | T/C [1, 3]: 130 % of control [survivor count not shown] | T/C ([1]; dose: 3.0 mg/kg/injection, evaluated on day 36): 133 % of control [survivor count not shown] | T/C [1, 4]: 127 % of control [survivor count not shown] | T/C ([1]; dose: 5.0 mg/kg/injection, evaluated on day 32): 127 % of control [survivor count not shown] | T/C ([2]; dose: 0.25 mg/kg/injection, evaluated on day 7): 97 % of control [survivor count not shown] | T/C ([2]; dose: 0.25 mg/kg/injection, evaluated on day 36): 100 % of control [survivor count not shown] | T/C ([2]; dose: 0.5 mg/kg/injection, evaluated on day 7): 104 % of control [survivor count not shown] | T/C ([2]; dose: 0.5 mg/kg/injection, evaluated on day 36): 105 % of control [survivor count not shown] | T/C ([2]; dose: 0.65 mg/kg/injection, evaluated on day 7): 108 % of control [survivor count not shown] (2×) | T/C ([2]; dose: 0.65 mg/kg/injection, evaluated on day 32): 111 % of control [survivor count not shown] | T/C ([2]; dose: 0.65 mg/kg/injection, evaluated on day 36): 111 % of control [survivor count not shown] | T/C ([2]; dose: 1.0 mg/kg/injection, evaluated on day 7): 110 % of control [survivor count not shown] | T/C ([2]; dose: 1.0 mg/kg/injection, evaluated on day 36): 111 % of control [survivor count not shown] | T/C ([2]; dose: 1.08 mg/kg/injection, evaluated on day 7): 113 [survivor count not shown] and 123 % of control [survivor count not shown] | T/C ([2]; dose: 1.08 mg/kg/injection, evaluated on day 32): 111 % of control [survivor count not shown] | T/C ([2]; dose: 1.08 mg/kg/injection, evaluated on day 36): 122 % of control [survivor count not shown] | T/C ([2]; dose: 1.8 mg/kg/injection, evaluated on day 7): 118 [survivor count not shown] and 123 % of control [survivor count not shown] | T/C ([2]; dose: 1.8 mg/kg/injection, evaluated on day 32): 116 % of control [survivor count not shown] | T/C ([2]; dose: 1.8 mg/kg/injection, evaluated on day 36): 122 % of control [survivor count not shown] | T/C [2, 3]: 123 % of control [survivor count not shown] | T/C ([2]; dose: 3.0 mg/kg/injection, evaluated on day 32): 122 % of control [survivor count not shown] | T/C ([2]; dose: 4.0 mg/kg/injection, evaluated on day 7): 118 % of control [survivor count not shown] | T/C ([2]; dose: 4.0 mg/kg/injection, evaluated on day 36): 122 % of control [survivor count not shown] | T/C [2, 4]: 118 % of control [survivor count not shown] | T/C ([2]; dose: 5.0 mg/kg/injection, evaluated on day 36): 122 % of control [survivor count not shown] | T/C ([2]; dose: 8.0 mg/kg/injection, evaluated on day 7): 122 % of control [survivor count not shown] | T/C ([2]; dose: 8.0 mg/kg/injection, evaluated on day 36): 122 % of control [survivor count not shown] | T/C ([2]; dose: 8.4 mg/kg/injection, evaluated on day 7): 121 [survivor count not shown] and 123 % of control [survivor count not shown] | T/C ([2]; dose: 8.4 mg/kg/injection, evaluated on day 32): 122 % of control [survivor count not shown] | T/C ([2]; dose: 8.4 mg/kg/injection, evaluated on day 36): 122 % of control [survivor count not shown] | T/C ([2]; dose: 14.0 mg/kg/injection): 91 % of control [survivor count not shown]
